According to article PMC7830406:
Results are given in words; binding and its absence hold for the method and conditions named. Binding seen in cells or lysates may run through a third protein. A yes stands for co-enrichment or nearness to the bait. Other partners may have been found.

Biological target: bZIP52-GFP (Arabidopsis thaliana)
Assay: affinity purification with mass spectrometry; GFP-Trap agarose beads on protein extracts of 7-day-old A. thaliana seedlings expressing bZIP18-GFP or bZIP52-GFP; bound proteins identified by LC-MS/MS

B1: 14–3–3 ε (GRF10) (protein, UniProt P48347 1-254)
chain: MENEREKQVYLAKLSEQTERYDEMVEAMKKVAQLDVELTVEERNLVSVGYKNVIGARRASWRILSSIEQKEESKGNDENVKRLKNYRKRVEDELAKVCNDILSVIDKHLIPSSNAVESTVFFYKMKGDYYRYLAEFSSGAERKEAADQSLEAYKAAVAAAENGLAPTHPVRLGLALNFSVFYYEILNSPESACQLAKQAFDDAIAELDSLNEESYKDSTLIMQLLRDNLTLWTSDLNEEGDERTKGADEPQDEN
For B1, the binding was “binds”.
